From patent US10125101B2, “Indanylaminopyridylcyclopropanecarboxylic acids, pharmaceutical compositions and uses thereof” (Boehringer Ingelheim International GmbH, priority 2016, dated 2018)
Some entries of the source have several records that differ or are many. This is not the full list of results. There may be further records. The records of an entry differ, and nothing given here explains why; they may come from other doses, times, organisms or constructs than stated.

Experiment: Aqueous solubility
Format: physicochemical
Conditions: buffer pH 2.2, 24 h shaking, 2.5% DMSO
Experimental: Starting from a 10 mM DMSO stock solution aliquots are diluted with acetonitrile/water (1/1) or buffer, respectively. After 24 h of shaking, the solutions are filtrated and analyzed by LC-UV. The amount dissolved in buffer is compared to the amount in the acetonitrile solution.

Cc1cc(-c2nnn(C)n2)cc(C)c1-c1ccc(F)c2c1CC[C@H]2Nc1ccc([C@H]2C[C@@H]2C(=O)O)nc1 [Example 30]
Solubility at pH value 2.2: 99 μg/mL and Solubility (pH 2.2) = 99 μg/mL
